# At least one compound was matched to its structure with a doubt left.
# Experiment: Fluorescein loading studied by laser scanning confocal microscope (LSCM)
# Format: physicochemical
# Settings: 25° C.; for depth of loading into the IPN substrate: Elastosil LR3003 IPN
smiles,measurement,setting,value
O=C1OC2(c3ccc(O)cc3Oc3cc(O)ccc32)c2ccccc21 [fluorescein],loading observed by LSCM at different times,"IPN substrate in aqueous solution 0.02 mg/ml, ambient pressure, two weeks",a diffusion gradient into the samples which increased in depth as a function of time
same,loading observed by LSCM,"silicone disc (Elastosil LR3003) without hydrogel, water solution in CO2, 300 bars, 2-24 hours",no loading of fluorescein could be observed
same,depth of loading into the IPN substrate,"water + EtOH in supercritical CO2, 300 bars, 2 hours",60-70 μm
same,distribution in the loaded IPN observed by LSCM,"water + EtOH in supercritical CO2, 300 bars, 2 hours, Silpuran 6000 medical grade IPN",homogeneously distributed in a fine network
same,depth of loading into the IPN substrate,"water solution in supercritical CO2, 300 bars, 2 hours",35-40 μm
